In ChEMBL document CHEMBL1157379, “Transcriptional response of Candida parapsilosis following exposure to farnesol” (2007):
This continues a long series; more values of the same kind are listed elsewhere.

Key:
Format in all cases: functional
Candida parapsilosis [1] = experiment: Decrease in CGD gene ortholog accession number orf19.5388 expression in Candida parapsilosis CLIB214 at 50 uM after 2 hrs by microarray based transcriptional profiling relative to control
Candida parapsilosis [2] = experiment: Decrease in GCV2 gene expression in Candida parapsilosis CLIB214 at 50 uM after 2 hrs by microarray based transcriptional profiling relative to control
Candida parapsilosis [3] = experiment: Increase in CGD gene ortholog accession number orf19.1429 expression in Candida parapsilosis CLIB214 at 50 uM after 2 hrs by microarray based transcriptional profiling relative to control
Candida parapsilosis [4] = experiment: Increase in HSP90 gene expression in Candida parapsilosis CLIB214 at 50 uM after 2 hrs by microarray based transcriptional profiling relative to control
Candida parapsilosis [5] = experiment: Decrease in CGD gene ortholog accession number orf19.1634 expression in Candida parapsilosis CLIB214 at 50 uM after 2 hrs by microarray based transcriptional profiling relative to control
Candida parapsilosis [6] = experiment: Increase in CGD gene ortholog accession number orf19.1747 expression in Candida parapsilosis CLIB214 at 50 uM after 2 hrs by microarray based transcriptional profiling relative to control
Candida parapsilosis [7] = experiment: Increase in GenBank accession number NP_943634.1 expression in Candida parapsilosis CLIB214 at 50 uM after 2 hrs by microarray based transcriptional profiling relative to control
Candida parapsilosis [8] = experiment: Increase in CGD gene ortholog accession number orf19.843 expression in Candida parapsilosis CLIB214 at 50 uM after 2 hrs by microarray based transcriptional profiling relative to control
Candida parapsilosis [9] = experiment: Decrease in ZCF30 gene expression in Candida parapsilosis CLIB214 at 50 uM after 2 hrs by microarray based transcriptional profiling relative to control
Candida parapsilosis [10] = experiment: Decrease in CGD gene ortholog accession number orf19.433 expression in Candida parapsilosis CLIB214 at 50 uM after 2 hrs by microarray based transcriptional profiling relative to control
Candida parapsilosis [11] = experiment: Decrease in PFK1 gene expression in Candida parapsilosis CLIB214 at 50 uM after 2 hrs by microarray based transcriptional profiling relative to control
Candida parapsilosis [12] = experiment: Increase in CGD gene ortholog accession number orf19.3799 expression in Candida parapsilosis CLIB214 at 50 uM after 2 hrs by microarray based transcriptional profiling relative to control
Candida parapsilosis [13] = experiment: Increase in DBP2 gene expression in Candida parapsilosis CLIB214 at 50 uM after 2 hrs by microarray based transcriptional profiling relative to control
Candida parapsilosis [14] = experiment: Decrease in SFC1 gene expression in Candida parapsilosis CLIB214 at 50 uM after 2 hrs by microarray based transcriptional profiling relative to control
Candida parapsilosis [15] = experiment: Increase in CGD gene ortholog accession number orf19.949 expression in Candida parapsilosis CLIB214 at 50 uM after 2 hrs by microarray based transcriptional profiling relative to control
Candida parapsilosis [16] = experiment: Increase in CGD gene ortholog accession number orf19.1230 expression in Candida parapsilosis CLIB214 at 50 uM after 2 hrs by microarray based transcriptional profiling relative to control
Candida parapsilosis [17] = experiment: Decrease in CYB2 gene expression in Candida parapsilosis CLIB214 at 50 uM after 2 hrs by microarray based transcriptional profiling relative to control
Candida parapsilosis [18] = experiment: Increase in CGD gene ortholog accession number orf19.3456 expression in Candida parapsilosis CLIB214 at 50 uM after 2 hrs by microarray based transcriptional profiling relative to control
Candida parapsilosis [19] = experiment: Decrease in CGD gene ortholog accession number orf19.1976 expression in Candida parapsilosis CLIB214 at 50 uM after 2 hrs by microarray based transcriptional profiling relative to control
Candida parapsilosis [20] = experiment: Increase in CGD gene ortholog accession number orf19.3015 expression in Candida parapsilosis CLIB214 at 50 uM after 2 hrs by microarray based transcriptional profiling relative to control
Candida parapsilosis [21] = experiment: Decrease in DPP1 gene expression in Candida parapsilosis CLIB214 at 50 uM after 2 hrs by microarray based transcriptional profiling relative to control
Candida parapsilosis [22] = experiment: Increase in CGD gene ortholog accession number orf19.6555 expression in Candida parapsilosis CLIB214 at 50 uM after 2 hrs by microarray based transcriptional profiling relative to control
Candida parapsilosis [23] = experiment: Increase in CGD gene ortholog accession number orf19.4544 expression in Candida parapsilosis CLIB214 at 50 uM after 2 hrs by microarray based transcriptional profiling relative to control
Candida parapsilosis [24] = experiment: Increase in CGD gene ortholog accession number orf19.7568 expression in Candida parapsilosis CLIB214 at 50 uM after 2 hrs by microarray based transcriptional profiling relative to control
Candida parapsilosis [25] = experiment: Increase in CGD gene ortholog accession number orf19.2998 expression in Candida parapsilosis CLIB214 at 50 uM after 2 hrs by microarray based transcriptional profiling relative to control
Candida parapsilosis [26] = experiment: Increase in GenBank accession number NP_943639.1 expression in Candida parapsilosis CLIB214 at 50 uM after 2 hrs by microarray based transcriptional profiling relative to control
Candida parapsilosis [27] = experiment: Decrease in CGD gene ortholog accession number orf19.1007 expression in Candida parapsilosis CLIB214 at 50 uM after 2 hrs by microarray based transcriptional profiling relative to control
Candida parapsilosis [28] = experiment: Increase in CGD gene ortholog accession number orf19.5598 expression in Candida parapsilosis CLIB214 at 50 uM after 2 hrs by microarray based transcriptional profiling relative to control
Candida parapsilosis [29] = experiment: Increase in CHT1 gene expression in Candida parapsilosis CLIB214 at 50 uM after 2 hrs by microarray based transcriptional profiling relative to control
Candida parapsilosis [30] = experiment: Increase in PUT2 gene expression in Candida parapsilosis CLIB214 at 50 uM after 2 hrs by microarray based transcriptional profiling relative to control
Candida parapsilosis [31] = experiment: Decrease in CGD gene ortholog accession number orf19.2049 expression in Candida parapsilosis CLIB214 at 50 uM after 2 hrs by microarray based transcriptional profiling relative to control
Candida parapsilosis [32] = experiment: Decrease in CGD gene ortholog accession number orf19.2756 expression in Candida parapsilosis CLIB214 at 50 uM after 2 hrs by microarray based transcriptional profiling relative to control
Candida parapsilosis [33] = experiment: Decrease in CGD gene ortholog accession number orf19.5307 expression in Candida parapsilosis CLIB214 at 50 uM after 2 hrs by microarray based transcriptional profiling relative to control
Candida parapsilosis [34] = experiment: Increase in CGD gene ortholog accession number orf19.7256 expression in Candida parapsilosis CLIB214 at 50 uM after 2 hrs by microarray based transcriptional profiling relative to control
Candida parapsilosis [35] = experiment: Decrease in CGD gene ortholog accession number orf19.6976 expression in Candida parapsilosis CLIB214 at 50 uM after 2 hrs by microarray based transcriptional profiling relative to control
Candida parapsilosis [36] = experiment: Decrease in CGD gene ortholog accession number orf19.6650 expression in Candida parapsilosis CLIB214 at 50 uM after 2 hrs by microarray based transcriptional profiling relative to control

## CC(C)=CCC/C(C)=C/CC/C(C)=C/CO [FARNESOL]
Candida parapsilosis [1]
  fold change (FC): 2.08
Candida parapsilosis [2]
  fold change (FC): 1.61
Candida parapsilosis [3]
  fold change (FC): 1.7
Candida parapsilosis [4]
  fold change (FC): 3.05
Candida parapsilosis [5]
  fold change (FC): 1.78
Candida parapsilosis [6]
  fold change (FC): 1.64
Candida parapsilosis [7]
  fold change (FC): 3.03
Candida parapsilosis [8]
  fold change (FC): 1.74
Candida parapsilosis [9]
  fold change (FC): 1.78
Candida parapsilosis [10]
  fold change (FC): 2.11
Candida parapsilosis [11]
  fold change (FC): 1.75
Candida parapsilosis [12]
  fold change (FC): 1.55
Candida parapsilosis [13]
  fold change (FC): 3.1
Candida parapsilosis [14]
  fold change (FC): 1.63
Candida parapsilosis [15]
  fold change (FC): 1.8
Candida parapsilosis [16]
  fold change (FC): 1.52
Candida parapsilosis [17]
  fold change (FC): 2.32
Candida parapsilosis [18]
  fold change (FC): 1.68
Candida parapsilosis [19]
  fold change (FC): 2.2
Candida parapsilosis [20]
  fold change (FC): 1.67
Candida parapsilosis [21]
  fold change (FC): 2
Candida parapsilosis [22]
  fold change (FC): 1.64
Candida parapsilosis [23]
  fold change (FC): 1.51
Candida parapsilosis [24]
  fold change (FC): 1.64
Candida parapsilosis [25]
  fold change (FC): 1.81
Candida parapsilosis [26]
  fold change (FC): 2.63
Candida parapsilosis [27]
  fold change (FC): 1.93
Candida parapsilosis [28]
  fold change (FC): 1.66
Candida parapsilosis [29]
  fold change (FC): 1.55
Candida parapsilosis [30]
  fold change (FC): 1.6
Candida parapsilosis [31]
  fold change (FC): 1.92
Candida parapsilosis [32]
  fold change (FC): 1.9
Candida parapsilosis [33]
  fold change (FC): 2.24
Candida parapsilosis [34]
  fold change (FC): 1.6
Candida parapsilosis [35]
  fold change (FC): 1.69
Candida parapsilosis [36]
  fold change (FC): 2.01
